Data: the supplement of paper PMC5949888
± gives the standard deviation of the averaged measurements. Most values lie at the floor of the assay. Slopes are relative: functional sequences can read slightly below zero.

These substances were tested on Saccharomyces cerevisiae PS128 hsf1 delta, HSF1(1-493) fusion (assay: growth estimate (transactivation domain function in HSF1 fusion, heat-shock survival) (a.u. (slope of normalised read count over time)); higher = stronger growth at 37°C, i.e. more transactivation activity). Conditions: library: random library.
Procedure: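 Random 60-nt DNA library encoding peptides of up to 20 aa, fused to the C-terminus of yeast HSF1 residues 1-493 (C-terminal TAD deleted) and expressed from the native HSF1 promoter on a CEN plasmid in hsf1-deleted S. cerevisiae PS128. Cells were selected at 37°C on -trp 5-FOA plates for 0, 2, 4, 6 and 8 days and amplicons were sequenced. Growth estimate is the slope of a robust linear fit of total-sum-normalised read counts (normalised to the first time point) over time, using at least 2 replicates. Sequences are classed functional (TAD activity) above a threshold of -0.13, set from stop-codon control sequences.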

Substance | growth estimate
IGSRWNAMTYSQIWSCPSFH | < -0.25
IGSSGEW | < -0.25
IGSWAMSSCCDCPTNCNGQA | < -0.25
IGTRLIWGVG | -0.221
IGVESLPIGRVVPWHVGLTG | < -0.25
IGVVPSTLRIDVSLQIATCR | < -0.25
IGYGLVGDPRSCGILGLRSG | < -0.25
IHASPDIR | < -0.25
IHC | < -0.25
IHDVRQRQAKIQVSL | -0.248
IHFWVLLLEAAGKRRSVRSG | < -0.25
IHG | < -0.25
IHLVASHLESSTGVDSYSGV | < -0.25
IHMS | < -0.25
IHPAHRPS | < -0.25
IHQLGEWNAVGAHYLMHIVL | < -0.25
IHSRGHMTRNHATRSRAIGP | < -0.25
IHTEVSTAAQICTDE | < -0.25
IHTGSSCGKRVKIKPARIDT | -0.246
IIATP | < -0.25
IIEHVKFNL | < -0.25
IIEPPS | -0.246
IIGQAFLAGVGQSLSASSAA | < -0.25
IIGQVVSGVRTGYRVGS | < -0.25

Substance | growth estimate
IIGVVNPWCLQQG | < -0.25
IIKRRTRTG | < -0.25
IILFSHSRQPNDVQQLPLSD | < -0.25
IIMPRFHKWAVNVTCLIPGI | < -0.25
IIPRCETDRGPRSKSRMECY | < -0.25
IIQRMDCVITLTVMYNGATC | < -0.25
IIRGLSFWRSVRVHTRERPP | < -0.25
IIRLTAGSV | < -0.25
IIRSCARGGLAEGVTPQSIS | < -0.25
IIS | < -0.25
IISPCCYRVQL | < -0.25
IISQRGSV | -0.211
IIVMVRAFGRQPWRPDRKRT | < -0.25
IIWA | < -0.25
IIWTFGLTRSAPNVFREAIR | < -0.25
IKAIPGPLESPPGRCERD | < -0.25
IKCVMTSIVA | < -0.25
IKGPPRDSRCDCTNSEASGS | -0.228
IKGVGPLQAY | < -0.25
IKHTRDR | < -0.25
IKKCKGIWTTSLVAVLQRSR | < -0.25
IKLI | < -0.25
IKLRAGPLTLG | -0.243
IKNSVIARREQVGL | < -0.25

Individual results from the entries so far.
Value of IISQRGSV under growth estimate: -0.211
Value of IIGVVNPWCLQQG under growth estimate: < -0.25
Value of IIMPRFHKWAVNVTCLIPGI under growth estimate: < -0.25

The listing continues.

Substance | growth estimate
IKSAVRIYCFNRTPPDAQLR | < -0.25
IKSQYRDTGMYVMSLTQGRM | < -0.25
IKTIFIGGTCLSESIL | < -0.25
IKVNLARYFWCLS | < -0.25
IKYAAILLRL | < -0.25
IKYGLIAVRRNYITGAIVST | < -0.25
ILAKRKRESPFRTPFRKSGV | -0.246
ILARCYGGNQSVRELHALME | < -0.25
ILCGCDAALSKTACLSRAWG | < -0.25
ILDMKSPHLRQHGKSGPPPW | < -0.25
ILDSVAVRWNLWVAAMVSAA | < -0.25
ILERLV | < -0.25
ILFLFFAHEFGAAGHCASVY | < -0.25
ILFRWF | < -0.25
ILFTTLGIGVIGNVIFRPG | < -0.25
ILGARARDC | < -0.25
ILGGFGRDLFGPWGLKGL | < -0.25
ILGPAGLAPS | < -0.25
ILGRGARTVREGAGYTSDSK | < -0.25
ILGRWPDQKLSG | -0.243
ILGTASICPRPDGVQRR | < -0.25
ILHIITH | -0.246
ILHKAPQRSFTRGVAGLAKG | < -0.25
ILHYEIGSRVTPSSGLLVFC | < -0.25

Pulled one by one from the list above:
Substance | growth estimate
ILGPAGLAPS | < -0.25
IKYAAILLRL | < -0.25

(cont.)

Substance | growth estimate
ILI | < -0.25
ILIASAVKFIRGLTYFATRR | < -0.25
ILIGKTGHKRVVIQVHCTGG | < -0.25
ILIGPCL | < -0.25
ILIHTLLKGAEPTGKDKGL | -0.168
ILITASEHLDYGISGQAPNV | < -0.25
ILKLRCSSILCVRYCDRFSG | < -0.25
ILLEQSG | < -0.25
ILLFNKSVDIEHSVGIVERV | < -0.25
ILMANVNHSVYPLRYATL | < -0.25
ILPTLSPSGIVGGQEAGVMW | < -0.25
ILQ | < -0.25
ILRDRLPHRCKQ | < -0.25
ILRFEGMLWIQLLELFGCPN | < -0.25
ILRL | -0.246
ILRMTWPHYHIGWSVAHKST | < -0.25
ILRRFSKTQEGKNFRRL | < -0.25
ILRRLGRCLGLDQKRGAEAQ | < -0.25
ILRVFVLWGFSGANLSSLRG | < -0.25
ILSKPWGRLCTPGIVQGELE | < -0.25
ILSPNRLLGWRRPEAGGY | < -0.25
ILT | -0.248 ± 0.003
